According to patent EP4640207A1, “AQUEOUS COMPOSITION AND EXTERNAL PREPARATION FOR SKIN” (Resonac Corporation, priority 2022, dated 2024):
At least one read-out could not be matched to a standard name with certainty.

System: OCL1
Assay: Immunohistochemical staining of skin model sections, brightness analysis, OCL1
Format: cell-based
Conditions: skin model after TEWL measurement; relative to 0.5% by mass HD aqueous solution without test compound = 1.00

In the case of D-α-tocopheryl glucoside [α-TPG/HD], the “Brightness (relative value) OCL1” value is reported as 1.29.
